We go through 1 molecule from publication PMC8619003.

Sequences of proteins named here, by UniProt entry; tags and fusion partners are left off.
UniProt P15531: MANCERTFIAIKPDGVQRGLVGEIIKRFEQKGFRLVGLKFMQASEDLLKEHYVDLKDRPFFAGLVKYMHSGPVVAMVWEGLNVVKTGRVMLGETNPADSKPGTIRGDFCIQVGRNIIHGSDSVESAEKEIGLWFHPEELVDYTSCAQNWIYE

These are yes or no findings as the source states them, for the method shown. In cells and extracts the contact can be indirect. Some results given as binding are weak or reduced against the parent protein; the word gives no strength.

The target of this test is NME1 (nucleoside diphosphate kinase A), endogenous in U937 cells (human (endogenous in U937)) (UniProt P15531). The test can be described thus: co-IP; U937 cells lysed under non-denaturing conditions; 500 ug total lysate protein, IP with anti-NME1, immunoblot for ST8SIA1 and NME1; beads only (IgG) as control.

B1: ST8SIA1 (ST8 alpha-N-acetyl-neuraminide alpha-2,8-sialyltransferase 1), endogenous in U937 cells (protein, UniProt Q92185 1-356)
chain: MSPCGRARRQTSRGAMAVLAWKFPRTRLPMGASALCVVVLCWLYIFPVYRLPNEKEIVQGVLQQGTAWRRNQTAARAFRKQMEDCCDPAHLFAMTKMNSPMGKSMWYDGEFLYSFTIDNSTYSLFPQATPFQLPLKKCAVVGNGGILKKSGCGRQIDEANFVMRCNLPPLSSEYTKDVGSKSQLVTANPSIIRQRFQNLLWSRKTFVDNMKIYNHSYIYMPAFSMKTGTEPSLRVYYTLSDVGANQTVLFANPNFLRSIGKFWKSRGIHAKRLSTGLFLVSAALGLCEEVAIYGFWPFSVNMHEQPISHHYYDNVLPFSGFHAMPEEFLQLWYLHKIGALRMQLDPCEDTSLQPTS
Take B1: the binding entry is “binds”.
